This is an account of results in publication doi:10.1101/2022.07.18.500419.

Protein sequences, listed by entry. Tags and fused reporters are not part of them. Lines headed by an entry give the natural chain unless they say otherwise; changes in a name come on top.
UniProt P35613: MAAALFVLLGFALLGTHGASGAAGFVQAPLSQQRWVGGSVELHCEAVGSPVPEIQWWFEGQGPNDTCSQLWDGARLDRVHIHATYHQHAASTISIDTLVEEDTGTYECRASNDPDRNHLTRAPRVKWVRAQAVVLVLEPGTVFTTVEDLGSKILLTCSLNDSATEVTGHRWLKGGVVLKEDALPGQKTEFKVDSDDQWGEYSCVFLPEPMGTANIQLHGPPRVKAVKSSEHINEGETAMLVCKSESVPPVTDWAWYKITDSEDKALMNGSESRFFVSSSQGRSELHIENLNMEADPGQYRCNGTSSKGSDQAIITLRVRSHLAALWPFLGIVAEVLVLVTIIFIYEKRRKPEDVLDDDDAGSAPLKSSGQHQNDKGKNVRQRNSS

These are yes or no findings as the source states them, for the method shown. Binding calls can cover weak binding; strength is not graded here.

The test addresses Basigin (human (endogenous in RBCs)) (UniProt P35613). Nature of the test: native gel or EMSA. (In general: A gel shift assay detects complexes by their altered migration in electrophoresis.)

With CD44 (from UniProt P16070-12), the binding entry was “binds”. Turning to “β2-adrenergic receptor (from UniProt P07550 1-413)”, the binding entry is on record as “binds”.
